# Measurements as given in the supplement of paper PMC3334620.
# Over roughly 33,000 sequences, “E-score (-0.5 to 0.5)” has its median near -0.016; the highest 2% begin near 0.3. The list shows a part of the results.
# Molecular target: T1, Yer184c (UniProt P39961)
# T1 sequence: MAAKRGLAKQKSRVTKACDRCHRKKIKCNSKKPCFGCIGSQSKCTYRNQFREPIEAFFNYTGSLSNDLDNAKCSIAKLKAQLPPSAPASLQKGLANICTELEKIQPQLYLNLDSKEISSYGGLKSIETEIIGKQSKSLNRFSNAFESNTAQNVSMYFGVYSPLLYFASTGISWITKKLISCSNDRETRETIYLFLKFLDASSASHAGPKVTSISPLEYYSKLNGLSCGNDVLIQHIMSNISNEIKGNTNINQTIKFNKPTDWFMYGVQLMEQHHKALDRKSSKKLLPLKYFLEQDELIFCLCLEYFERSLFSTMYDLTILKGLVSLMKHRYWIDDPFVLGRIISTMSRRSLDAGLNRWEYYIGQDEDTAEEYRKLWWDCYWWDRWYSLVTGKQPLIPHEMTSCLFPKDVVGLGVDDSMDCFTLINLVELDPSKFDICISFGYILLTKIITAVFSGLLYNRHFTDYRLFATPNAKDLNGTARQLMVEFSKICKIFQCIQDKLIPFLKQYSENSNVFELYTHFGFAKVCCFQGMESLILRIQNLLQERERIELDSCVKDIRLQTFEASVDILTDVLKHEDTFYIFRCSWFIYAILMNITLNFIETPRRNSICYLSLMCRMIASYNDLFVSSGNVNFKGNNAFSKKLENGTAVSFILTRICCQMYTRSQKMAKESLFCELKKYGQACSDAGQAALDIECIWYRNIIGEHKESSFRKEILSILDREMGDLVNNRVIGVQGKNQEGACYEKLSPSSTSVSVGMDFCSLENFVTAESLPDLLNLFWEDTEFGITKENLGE
# Experiment: PBM E-score (8-mer binding enrichment) (E-score (-0.5 to 0.5)); higher = stronger / more preferred TF binding
# Conditions: protein concentration: 100 nM; construct: GST-full length
# Method in brief: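 Full-length yeast transcription factors or their DNA-binding domains, GST-tagged and expressed with PURExpress, were applied at about 100-200 nM to universal all-10-mer Agilent arrays. These arrays had been made double-stranded by primer extension on fresh or once-stripped slides. Detection used fluorescent anti-GST, normalisation used masliner, and E-scores for ungapped eight-base words pooled with reverse complements came from the Universal PBM Analysis Suite.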
row,Sequence,PBM E-score
1,CCGGGGAG,0.0832
2,ACCAGGGA,-0.3
3,GTAGGCAC,-0.196
4,CTACACAG,-0.185
5,ACTTTCGG,0.16
6,AACGATTC,0.106
7,CAAGTCGG,0.0537
8,AATTTGGA,-0.0799
9,ACCCTTCG,-0.123
10,ACTTCAAA,0.0515
11,CAAAGTAA,0.0677
12,ACCAATGC,-0.0435
13,CCATCCGG,0.143
14,AGAATTGG,-0.012
15,CGATATAA,0.0483
16,ACCGAGTG,-0.068
17,CGCGGTAC,0.139
18,TACATCCA,0.0241
19,TCATAAGA,0.1
20,CCTGGGCC,-0.131
21,AGGCTGCG,-0.155
22,TAATTTCA,0.244
23,CCAGTAAA,-0.0809
24,AGTATTCA,0.00042
25,TCATCCCA,-0.181

row,Sequence,PBM E-score
1,GACTCTAA,-0.104
2,CCGGATAG,0.342
3,ACCAAAAG,0.115
4,AATGCAGC,-0.26
5,GGGGCATA,-0.238
6,CGAAAAAG,0.17
7,ACGCCCGA,0.056
8,ACTTCCCA,-0.0981
9,GCATCAAC,0.0173
10,AAAATTTA,0.228
11,CCTGTAAG,-0.186
12,CGACCGGA,0.253
13,GTGGAAGA,0.131
14,TATTGAGA,0.0985
15,ACCGGCGG,0.182
16,CCTTTAAG,0.00753
17,CTAGGTGC,-0.232
18,ACAGAGAA,0.0725
19,CGGCCGAC,0.381
20,ACTGGCGG,-0.0142
21,GTAAGTCA,-0.116
22,GAATTGGA,-0.0106
23,CGTTGCCC,-0.166
24,CCCCTAAG,-0.302
25,CACGTAGC,-0.25

row,Sequence,PBM E-score
1,CATGAACC,0.0505
2,TGACTCCA,-0.254
3,TTAATAAA,0.328
4,CTAGGAGA,-0.0687
5,CACGTTCG,-0.203
6,AACCGCGT,0.168
7,ATACAAAC,0.221
8,GTACTTAA,-0.13
9,ATAGGCCG,0.0354
10,CACAGGTC,-0.235
11,AGCCTGCC,-0.118
12,AACGAACA,0.254
13,GGCGCCGA,0.337
14,CAACGTCA,-0.0999
15,TCCAAAAA,0.103
16,GAGACCGA,0.152
17,GTAATGGA,0.181
18,GACCATGC,-0.0135
19,AAGACTTC,-0.188
20,CCGATACG,0.00831
21,ACTCCTGG,-0.289
22,CCGTCAGG,-0.0428
23,AGTGGTGC,-0.07
24,AGGTGAGC,-0.195
25,ACCCCCTG,-0.357

row,Sequence,PBM E-score
1,GCCTGACC,-0.101
2,GCCTAGGC,-0.197
3,ACGTCTAG,0.0664
4,CCTGGCTC,-0.0961
5,AGTGACCG,-0.011
6,ACTCACGG,0.141
7,CAGTAAGA,0.0505
8,ACCGTGGA,-0.0641
9,CCGACGAA,0.261
10,CGCGTGGA,-0.165
11,CGTGGCAG,-0.0489
12,GTTAGGGA,-0.114
13,ATGACGAC,-0.0244
14,GTCAACCA,-0.122
15,ACTAAACA,-0.0326
16,CGTCATTA,-0.0467
17,CGTTTATC,0.15
18,ATCATCCC,0.0551
19,AACCAACA,0.138
20,ATAGTGGG,-0.0876
21,ACCACGCG,-0.0749
22,GCTGCCCC,-0.231
23,AGGCATGG,-0.0826
24,ACCCATAA,-0.0176
25,CAGTTAAC,0.156

# For reference, part of the list above:
row,Sequence,PBM E-score
22,GCTGCCCC,-0.231
23,AGGCATGG,-0.0826
24,ACCCATAA,-0.0176
25,CAGTTAAC,0.156

# The list goes on.

row,Sequence,PBM E-score
1,GCCCCCTA,-0.259
2,AGATCGAG,0.0688
3,CACGCTAA,0.0554
4,CGCCCGCA,-0.0897
5,AGTGCCTG,-0.132
6,AGCATGCC,-0.204
7,GGAAGTCA,0.0584
8,AAACGAGA,0.0866
9,GGGGTCAA,0.00625
10,AATGCTTA,-0.272
11,GTCGATCA,0.0568
12,GGTTTCAA,0.147
13,GCCCGGTA,0.179
14,ACTTTCTC,0.0338
15,ATTTTCCG,0.4
16,CGTAAATA,0.215
17,ATTCGTTA,0.122
18,AATCTTGA,-0.134
19,CGGACTGC,0.11
20,AATGCATG,0.075
21,ATTGAGCG,-0.0456
22,AGTCTCAG,-0.104
23,ATCTACTA,0.209
24,AAGCCATG,-0.121
25,ATGTTAAC,0.0547

row,Sequence,PBM E-score
1,ACTGTTTA,0.0919
2,AACATAAG,0.0636
3,AACCCACC,-0.0459
4,CACTCAGG,-0.114
5,GACACCGA,0.133
6,AGCAGCTA,0.0536
7,CCAATCGA,-0.185
8,GATACTTA,0.0721
9,GATCCCCA,-0.14
10,CGAATCTA,0.0693
11,TGGCAGAA,0.0981
12,CCCTGTTC,-0.144
13,CAACTGGG,-0.257
14,ATCTCGCG,0.114
15,GAGCACAC,-0.203
16,CTTCCAAG,-0.101
17,GTTGCATA,-0.0108
18,GCAGGCCC,-0.246
19,CTTCAACC,0.0921
20,ATATGGAC,-0.0784
21,CCCATTCC,-0.258
22,AAACTCCC,-0.0832
23,AAGATTAG,0.072
24,TGAACTCA,0.0189
25,GCCCTGAA,0.0123

# Reformatted with bars between the fields: entries from further up
row | Sequence | PBM E-score
4 | CACTCAGG | -0.114
5 | GACACCGA | 0.133
6 | AGCAGCTA | 0.0536
7 | CCAATCGA | -0.185
8 | GATACTTA | 0.0721
9 | GATCCCCA | -0.14

# (list continues)

row,Sequence,PBM E-score
1,AATCGCTA,-0.0813
2,CCTAAAGC,-0.138
3,ACCCAACG,-0.0231
4,GGGAGTAC,-0.23
5,ATCCATAC,-0.0215
6,ATGAAATA,0.227
7,GGGTAGAA,-0.0545
8,AGCGCCCG,0.113
9,ACACCGTC,-0.0164
10,CTAGTAGA,0.185
11,CTTGGGAA,0.0588
12,CACGGCCC,-0.0419
13,AATAGAAC,0.134
14,CCGCGCCA,-0.0968
15,CAGTTGAC,-0.0401
16,GCGTTGAA,0.12
17,ATTTTCGA,0.121
18,GATGTCCC,-0.0325
19,GCCTTAGC,0.0575
20,GTGGTCTA,-0.208
21,GTCAGGAC,-0.129
22,AACTAGAA,0.0516
